Publication PMC10093586
No constants are given. Whether binding was seen depends on the method and setting. In cells and extracts the contact can be indirect. Some entries that bind do so weakly or less than the wild type.

The chains behind the UniProt entries cited, without tags or fusion partners.
UniProt P05556: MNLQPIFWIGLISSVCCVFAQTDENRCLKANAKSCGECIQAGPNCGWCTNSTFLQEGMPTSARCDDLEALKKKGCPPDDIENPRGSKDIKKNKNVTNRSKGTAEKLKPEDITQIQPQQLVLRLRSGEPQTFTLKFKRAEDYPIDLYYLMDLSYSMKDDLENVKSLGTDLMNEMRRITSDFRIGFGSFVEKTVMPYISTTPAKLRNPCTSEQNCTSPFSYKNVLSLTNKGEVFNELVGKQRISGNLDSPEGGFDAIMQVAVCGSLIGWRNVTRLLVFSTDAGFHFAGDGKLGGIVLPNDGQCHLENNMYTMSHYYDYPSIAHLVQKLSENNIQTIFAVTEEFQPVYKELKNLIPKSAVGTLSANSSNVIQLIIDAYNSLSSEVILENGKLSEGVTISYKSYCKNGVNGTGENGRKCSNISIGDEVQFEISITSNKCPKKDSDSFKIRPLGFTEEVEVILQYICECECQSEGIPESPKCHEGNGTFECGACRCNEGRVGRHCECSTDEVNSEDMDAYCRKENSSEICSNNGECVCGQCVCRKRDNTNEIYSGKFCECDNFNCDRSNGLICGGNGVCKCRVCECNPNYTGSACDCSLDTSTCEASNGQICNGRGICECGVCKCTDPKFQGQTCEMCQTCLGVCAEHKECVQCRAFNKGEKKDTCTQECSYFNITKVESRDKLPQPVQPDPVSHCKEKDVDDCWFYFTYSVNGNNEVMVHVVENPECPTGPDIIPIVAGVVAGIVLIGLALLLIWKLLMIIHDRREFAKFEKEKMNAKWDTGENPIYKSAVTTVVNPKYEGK
UniProt Q12809: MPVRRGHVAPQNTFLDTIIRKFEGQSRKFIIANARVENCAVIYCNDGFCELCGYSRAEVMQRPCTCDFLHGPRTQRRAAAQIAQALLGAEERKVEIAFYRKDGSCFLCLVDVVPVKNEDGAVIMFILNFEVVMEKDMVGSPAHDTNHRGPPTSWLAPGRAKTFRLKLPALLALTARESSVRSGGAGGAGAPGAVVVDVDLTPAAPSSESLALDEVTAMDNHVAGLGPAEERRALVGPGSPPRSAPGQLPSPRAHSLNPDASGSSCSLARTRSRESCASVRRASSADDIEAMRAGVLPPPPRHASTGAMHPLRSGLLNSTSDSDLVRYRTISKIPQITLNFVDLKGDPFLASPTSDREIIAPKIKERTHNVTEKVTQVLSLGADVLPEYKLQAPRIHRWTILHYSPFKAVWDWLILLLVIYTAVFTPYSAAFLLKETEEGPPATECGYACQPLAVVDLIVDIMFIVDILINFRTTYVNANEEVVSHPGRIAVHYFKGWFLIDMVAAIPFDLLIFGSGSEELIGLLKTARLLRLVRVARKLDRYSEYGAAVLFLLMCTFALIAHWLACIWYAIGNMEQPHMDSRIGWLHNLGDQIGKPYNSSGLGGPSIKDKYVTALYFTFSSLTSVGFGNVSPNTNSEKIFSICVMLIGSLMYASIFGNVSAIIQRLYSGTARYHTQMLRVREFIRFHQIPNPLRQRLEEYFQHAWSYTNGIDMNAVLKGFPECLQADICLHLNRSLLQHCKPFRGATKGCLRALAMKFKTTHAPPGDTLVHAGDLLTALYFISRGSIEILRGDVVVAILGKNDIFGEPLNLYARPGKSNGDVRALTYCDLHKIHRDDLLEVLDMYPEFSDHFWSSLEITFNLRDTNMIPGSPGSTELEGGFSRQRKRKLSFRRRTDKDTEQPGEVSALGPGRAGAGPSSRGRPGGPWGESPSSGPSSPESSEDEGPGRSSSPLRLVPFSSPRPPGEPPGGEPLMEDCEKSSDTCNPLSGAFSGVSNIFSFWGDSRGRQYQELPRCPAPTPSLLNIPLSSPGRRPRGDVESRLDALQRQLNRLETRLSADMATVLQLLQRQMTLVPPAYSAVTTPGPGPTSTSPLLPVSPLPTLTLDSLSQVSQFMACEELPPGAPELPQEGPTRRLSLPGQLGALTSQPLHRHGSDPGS

Target: β1 subunit of integrin receptors (β1 integrin) (human (endogenous in primary PDAC tissue)) (UniProt P05556)
Test: co-IP; β1 integrin immunoprecipitated with clone TS2/16 from total lysates (0.5 mg) of primary human PDAC and corresponding normal tissue, protein A/G agarose beads, 4 °C; blot with anti-hERG1 C terminus antibody

hERG1 (human ether-á-go-go-related gene 1 K+ channel) (from UniProt Q12809 1-1159)
binding: binds
